This assay has as its target TβR-V/LRP-1 in mink lung epithelial cells (Mv1Lu cells) (mink). Kind of assay: specific binding of 2 nM 125I-α2M* to Mv1Lu cells at pH 7.4, 0 C.

1 molecule from US20050250692A1 can be followed below.

Results are given in words; binding and its absence hold for the method and conditions named. Binding can be weak; no strength is given.

B1: α2M activated by methylamine (α2M*) (ligand, human, UniProt P01023 24-1474, looked up)
chain: SVSGKPQYMVLVPSLLHTETTEKGCVLLSYLNETVTVSASLESVRGNRSLFTDLEAENDVLHCVAFAVPKSSSNEEVMFLTVQVKGPTQEFKKRTTVMVKNEDSLVFVQTDKSIYKPGQTVKFRVVSMDENFHPLNELIPLVYIQDPKGNRIAQWQSFQLEGGLKQFSFPLSSEPFQGSYKVVVQKKSGGRTEHPFTVEEFVLPKFEVQVTVPKIITILEEEMNVSVCGLYTYGKPVPGHVTVSICRKYSDASDCHGEDSQAFCEKFSGQLNSHGCFYQQVKTKVFQLKRKEYEMKLHTEAQIQEEGTVVELTGRQSSEITRTITKLSFVKVDSHFRQGIPFFGQVRLVDGKGVPIPNKVIFIRGNEANYYSNATTDEHGLVQFSINTTNVMGTSLTVRVNYKDRSPCYGYQWVSEEHEEAHHTAYLVFSPSKSFVHLEPMSHELPCGHTQTVQAHYILNGGTLLGLKKLSFYYLIMAKGGIVRTGTHGLLVKQEDMKGHFSISIPVKSDIAPVARLLIYAVLPTGDVIGDSAKYDVENCLANKVDLSFSPSQSLPASHAHLRVTAAPQSVCALRAVDQSVLLMKPDAELSASSVYNLLPEKDLTGFPGPLNDQDNEDCINRHNVYINGITYTPVSSTNEKDMYSFLEDMGLKAFTNSKIRKPKMCPQLQQYEMHGPEGLRVGFYESDVMGRGHARLVHVEEPHTETVRKYFPETWIWDLVVVNSAGVAEVGVTVPDTITEWKAGAFCLSEDAGLGISSTASLRAFQPFFVELTMPYSVIRGEAFTLKATVLNYLPKCIRVSVQLEASPAFLAVPVEKEQAPHCICANGRQTVSWAVTPKSLGNVNFTVSAEALESQELCGTEVPSVPEHGRKDTVIKPLLVEPEGLEKETTFNSLLCPSGGEVSEELSLKLPPNVVEESARASVSVLGDILGSAMQNTQNLLQMPYGCGEQNMVLFAPNIYVLDYLNETQQLTPEIKSKAIGYLNTGYQRQLNYKHYDGSYSTFGERYGRNQGNTWLTAFVLKTFAQARAYIFIDEAHITQALIWLSQRQKDNGCFRSSGSLLNNAIKGGVEDEVTLSAYITIALLEIPLTVTHPVVRNALFCLESAWKTAQEGDHGSHVYTKALLAYAFALAGNQDKRKEVLKSLNEEAVKKDNSVHWERPQKPKAPVGHFYEPQAPSAEVEMTSYVLLAYLTAQPAPTSEDLTSATNIVKWITKQQNAQGGFSSTQDTVVALHALSKYGAATFTRTGKAAQVTIQSSGTFSSKFQVDNNNRLLLQQVSLPELPGEYSMKVTGEGCVYLQTSLKYNILPEKEEFPFALGVQTLPQTCDEPKAHTSFQISLSVSYTGSRSASNMAIVDVKMVSGFIPLKPTVKMLERSNHVSRTEVSSNHVLIYLDKVSNQTLSLFFTVLQDVPVRDLKPAIVKVYDYYETDEFAIAEYNAPCSKDLGNA
modifications: activated by methylamine; 125I-labelled where used as tracer
For B1, the binding entry is “binds”.
